Experimental data reported in PubChem BioAssay AID504467 (National Center for Advancing Translational Sciences (NCATS), 2011).
In all, about 330,000 compounds went through this assay and about 7,700 (2.3%) were called active. The inconclusive results got no clear call from the source; some entries with a clear call stand among them for comparison. Calls follow the shape of the dose curve; as a rule, active = well fitted inhibition curve with a large enough effect; inconclusive = small, poorly fitted or top-dose-only effect, or effect the other way; inactive = flat fitted curve, though single readings scatter. Potencies of inconclusive entries are doubtful fits and often do not repeat.

Assay: qHTS screen for small molecules that inhibit ELG1-dependent DNA repair in human embryonic kidney (HEK293T) cells expressing luciferase-tagged ELG1; also: nearly all actives have a fitted effect of over 55% in size
Settings: HEK293T ELG1-luciferase reporter, luminescence, 16 h, DNA damage induced by 5-fluorouridine; activity change, negative = inhibition: at 46.1 µM (top of the series)
Method in brief: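 In this reporter screen, reduction of luminescence relative to DMSO vehicle indicated activity. Compounds and 5-fluorouridine were added together to 2,000 cells per well, incubated for 16 hr at 37 °C, then developed with ONE-Glo.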
% is scaled to controls: 0 for no effect and ±100 for the full control effect; potency is read from the fitted curve at half-maximal effect.

| Structure (SMILES) | Potency | activity change, negative = inhibition |
| --- | --- | --- |
| Cc1nc2ccc(NC(=O)c3ccc(Cl)s3)cc2s1 | inconclusive: 5.17 µM [activator, partial curve] | – |
| CN(C)C(=O)Oc1noc2cc(Cl)ccc12 | – | inactive: 7.23% |
| C[C@]12CCC3C(CCC4=CC(O)CC[C@@]43/C=N/O)C1(O)CCC2C1=CC(=O)OC1 (stereo partly specified) | active: 1.46 µM | – |
| O=C(c1cc(-c2ccc(Cl)cc2)n(-c2ccc(Cl)cc2Cl)n1)N1CCOCC1 | inconclusive: 23.1 µM [inhibitor, partial curve, poor fit] | – |
| COC(=O)C1=C(c2c(C)noc2C)C[C@@H]2CC[C@H]1N2C(=O)NCCOc1ccc(OC)cc1 | – | inactive: 7.98% |
| CC(NCc1ccccc1C(F)(F)F)C(O)c1ccccc1 (stereo unspecified) | inconclusive: 3.26 µM [activator, partial curve, poor fit] | – |
| COc1ccccc1CCNCc1ccc(OC)c(OC)c1OC | – | inactive: -0.872% |
| COC(=O)c1ccc(NC(=O)CSc2nc3ccc(N4C(=O)C5C6C=CC(C6)C5C4=O)cc3s2)cc1 (stereo unspecified) | active: 13 µM | – |
| CCN(CC)C(=O)c1ccc(NC(=O)Nc2ccccc2F)cc1 | inconclusive: 0.92 µM [activator, partial curve] | – |
| Cc1ccccc1-n1c(O)c(/C=N/NC(=O)c2ccccc2O)c(=O)[nH]c1=S | inconclusive: 20.6 µM [activator, single point] | – |
| CC(=O)Nc1ccc(C2CN(C)CC2C(=O)c2ccc(Cl)cc2)cc1 (stereo unspecified) | – | inactive: -5.49% |
| C[C@H]1CCCC(=O)CCCCCc2cc(O)cc(O)c2C(=O)O1 | inconclusive: 20.6 µM [inhibitor, single point] | – |
| Cc1cc(C(=O)OCC(=O)Nc2ccc(F)cc2)c(C)n1C1CC1 | inconclusive: 20.6 µM [inhibitor, single point] | – |
| Cc1ccc(CC(=O)N2CCN(Cc3ccccc3)CC2)cc1 | inconclusive: 20.6 µM [inhibitor, partial curve, poor fit] | – |
| CC(C)(C)c1cc(OC(=O)Cc2ccccc2)ccc1O | – | inactive: -16.7% |
| CC(C)c1ccc(N=Cc2c(O)n(C3CC3)c(=S)[nH]c2=O)cc1 | inconclusive: 23.1 µM [activator, partial curve] | – |
| CCOP(=O)(OCC)C(O)c1ccc(OC)cc1 (stereo unspecified) | – | inactive: 0% |
| CN1C(=O)NC(=O)[C@]2(Cc3ccccc3N3CCN(c4ccccc4)CC32)C1=O (stereo partly specified) | inconclusive: 29.1 µM [activator, single point] | – |
| Cc1cc(C)cc(OCCOc2cccc(C=C3C(=O)NC(=O)NC3=O)c2)c1 | – | inactive: -6.55% |
| c1ccc2c(CN3CCCCCCC3)c[nH]c2c1 | inconclusive: 0.731 µM [activator, full curve, poor fit] | – |
| COc1ccccc1N1CCN(Cc2c[nH]c3ccccc23)CC1 | inconclusive: 2.91 µM [inhibitor, partial curve] | – |
| Cc1ccc(-c2cc(C(=O)N3CCC4(CC3)OCCO4)no2)cc1 | inconclusive: 29.1 µM [activator, single point] | – |
| CCC(C)C(NC(=O)CCCNC(=O)CCC(=O)OC1O[C@H]2OC3(C)CC[C@H]4[C@H](C)CCC(C1C)C24OO3)C(=O)O (stereo partly specified) | active: 0.58 µM | – |
| CCOC(=O)c1ccc(N=C(c2ccccc2)c2c(O)n(C)c(=O)n(C)c2=O)cc1 | – | inactive: -17.2% |

| Structure (SMILES) | Potency | activity change, negative = inhibition |
| --- | --- | --- |
| FC(F)(F)c1ccc2c(c1)nnn2C1CCN(Cc2nnnn2Cc2ccccc2)CC1 | inconclusive: 16.4 µM [inhibitor, single point] | – |
| O=c1[nH]c(=O)n(CC2CCCO2)c(O)c1/C=C1\C=Nc2ccccc21 (stereo unspecified) | inconclusive: 20.6 µM [activator, single point] | – |
| COc1ccc2c(c1OC)C(=O)OC2C1c2cc3c(cc2CCN1C)OCO3 (stereo unspecified) | inconclusive: 18.3 µM [inhibitor, partial curve, poor fit] | – |
| Clc1ccc(COC(Cn2ccnc2)c2ccc(Cl)cc2Cl)cc1 (stereo unspecified) | – | inactive: -7.61% |
| COc1ccc(C(=O)N/N=C/C23CC[C@@H](O)CC2(O)CC[C@@H]2[C@@H]3CCC3(C)C(C4=CC(=O)OC4)CCC23O)cc1 (stereo partly specified) | inconclusive: 29.1 µM [inhibitor, single point] | – |
| C=CCn1c(O)c(C(C)=Nc2ccc(C(=O)O)cc2)c(=O)[nH]c1=O | – | inactive: 0% |
| CN(C)S(=O)(=O)c1ccc(C(=O)NNc2nc(-c3ccccc3)c3cc(Br)ccc3n2)cc1 | active: 23.1 µM | – |
| COC(=O)C1=C(c2ccc3ccccc3c2)C[C@@H]2CC[C@H]1N2C(=O)N1CCC(O)CC1 | – | inactive: 0.447% |
| Cc1ccc(NC(=O)COc2ccc(-n3ccnc3)cc2)cc1Cl | inconclusive: 8.2 µM [inhibitor, partial curve] | – |
| CCn1c(O)c(/C=N/NC(=O)c2ccccc2)c(=O)[nH]c1=S | inconclusive: 20.6 µM [activator, single point] | – |
| COc1cc(/C=C/c2nc3ccccc3c(=O)n2-c2ccc(O)cc2)ccc1O | active: 16.4 µM | – |
| COc1ccccc1OP(=O)(Nc1cccnc1)Oc1ccccc1OC | active: 2.31 µM | – |
| Cc1ccc(OCC(=O)N2CCN(C)CC2)c(Br)c1 | inconclusive: 7.31 µM [activator, partial curve, poor fit] | – |
| COc1ccc(-c2nc3ccccc3n2OC(=O)N(C)C)cc1 | inconclusive: 16.4 µM [activator, partial curve, poor fit] | – |
| Cc1cccc(OCC(=O)N2CCN(Cc3cccnc3)CC2)c1 | – | inactive: 0.15% |
| N=Cc1c(O)n(-c2ccc(C34CC5CC(CC(C5)C3)C4)cc2)c(=O)[nH]c1=O | inconclusive: 20.6 µM [activator, single point] | – |
| COc1ccc(C2=NCC(=O)N(CC(=O)NCc3ccco3)c3sc4c(c32)CCCC4)cc1OC | – | inactive: -18.6% |
| COCCCn1c(N)c(C(=O)NCCC(C)C)c2nc3ccccc3nc21 | inconclusive: 14.1 µM [inhibitor, single point] | – |
| CN(C)c1ccc(NC(=O)CN2C(=O)CN=C(c3ccccc3)c3ccccc32)cc1 | inconclusive: 29.1 µM [inhibitor, single point] | – |
| CC(C)(C)NC(=O)NC(=O)CN1CC=C(c2ccccc2)CC1 | – | inactive: -6.94% |
| O=C1NC(=O)N(c2ccc3c(c2)OCO3)C(=O)/C1=C\c1ccc(-c2ccccc2C(=O)O)o1 | – | inactive: 3.09% |
| CCCCn1c(O)c(C(CC)=NCc2cc(OC)cc(OC)c2)c(=O)[nH]c1=O | active: 16.4 µM | – |
| O=C(C1CCCCC1)N1CCC(c2nc3c(nnn3Cc3c(F)cccc3Cl)c(=O)[nH]2)CC1 | inconclusive: 6.51 µM [inhibitor, partial curve] | – |
| O=c1[nH]sc2cc(F)ccc12 | – | inactive: 8.17% |

Structural class, the compounds so far with a tert-butyl group

| Structure (SMILES) | Potency | activity change, negative = inhibition |
| --- | --- | --- |
| CC(C)(C)c1cc(OC(=O)Cc2ccccc2)ccc1O | – | inactive: -16.7% |
| CC(C)(C)NC(=O)NC(=O)CN1CC=C(c2ccccc2)CC1 | – | inactive: -6.94% |

(continued)

| Structure (SMILES) | Potency | activity change, negative = inhibition |
| --- | --- | --- |
| Fc1cccc(CNCCc2c[nH]c3ccccc23)c1 | – | inactive: -1.71% |
| CCN(CC)C(=O)c1ccc(NC(=O)Cn2nc(C)c3ccccc3c2=O)cc1 | – | inactive: 7.13% |
| FC(F)(F)c1ccccc1N1CC1c1ccncc1 (stereo unspecified) | inconclusive: 29.1 µM [inhibitor, single point] | – |
| O=C(Nc1ccc(Cl)cc1)OC1CN2CCC1CC2 (stereo unspecified) | inconclusive: 16.4 µM [activator, partial curve] | – |
| CN1C(=O)C(=Cc2ccc(N3CCCCC3)o2)C(=O)N(C)C1=S | inconclusive: 8.2 µM [activator, partial curve] | – |
| O=c1cc(CN2CCNCC2)nc2sccn12 | inconclusive: 0.184 µM [activator, full curve, poor fit] | – |
| Cc1ccc(-n2nc(C)c3c2OC(N)=C(C#N)C3c2cccs2)cc1 (stereo unspecified) | inconclusive: 14.6 µM [activator, single point] | – |
| CCOC(=O)c1cc(C)n(CCc2cnc[nH]2)c1C | inconclusive: 20.6 µM [activator, single point] | – |
| CCN(CC)c1ccc2c(cc1=O)[C@@H](NC)CCc1cc(OC)c(OC)c(OC)c1-2 | inconclusive: 0.92 µM [inhibitor, partial curve, poor fit] | – |
| Cn1cnc2cc(NC(=O)c3ccc(Cl)cc3)ccc21 | inconclusive: 6.51 µM [activator, partial curve] | – |
| CC(=O)c1cn(Cc2ccccc2F)c2ccccc12 | inconclusive: 29.1 µM [activator, single point] | – |
| Cc1ccc2c(Cl)cc(Cl)c(OCC(=O)N(C(C)C)C(C)C)c2n1 | active: 25.9 µM | – |
| Cc1ccc(-n2c(O)c(/C=N/N3CCCCCC3)c(=O)[nH]c2=O)cc1C | inconclusive: 20.6 µM [activator, partial curve, poor fit] | – |
| CCOC(=O)C(NS(=O)(=O)c1ccc(C)cc1)(C(F)(F)F)P(=O)(OCC(C)C)OCC(C)C (stereo unspecified) | inconclusive: 18.4 µM [inhibitor, single point] | – |
| S=c1[nH]nc(Cn2c(-c3ccccn3)nc3ccccc32)n1-c1ccc2c(c1)OCCO2 | inconclusive: 5.8 µM [activator, full curve] | – |
| CN1C(=O)C(Cc2ccsc2)C(=O)N(C)C1=O | – | inactive: -7.24% |
| CSc1ncc(/C=C2/C(=O)NC(=O)N(c3ccc(Cl)cc3)C2=O)cn1 | – | inactive: 5.37% |
| CCn1c(O)c(/C(C)=N/N2CCCCC2c2cccnc2)c(=O)[nH]c1=S (stereo unspecified) | inconclusive: 16.4 µM [activator, single point] | – |
| Cc1cccc(-n2c(C)nc3ccccc3c2=O)c1C | – | inactive: -12.7% |
| C=CCN1C(=O)/C(=C/c2ccc3c(c2)CCCN3CCC)C(=O)NC1=S | inconclusive: 16.4 µM [activator, single point] | – |
| CC1CCCC(NC(=O)CNC(=S)N2CC3CC(C2)c2cccc(=O)n2C3)C1C (stereo unspecified) | – | inactive: -12.3% |
| O=C1NC(=O)N(Cc2ccccc2)C(=O)/C1=C/c1cnc(-c2ccccc2)nc1 | – | inactive: 25.4% |
| COC(=O)C1=C(c2cccc(C#N)c2)C[C@@H]2CC[C@H]1N2C(=O)N1CCOCC1 | inconclusive: 18.3 µM [activator, single point] | – |
